This is one part of the list.
Compound: C=CC(=O)N1CCC[C@@H](n2nc(-c3ccc(Oc4ccccc4)cc3)c3c(N)ncnc32)C1 [ibrutinib]
Assay: log2 fold change, soluble protein after heating vs DMSO (PISA); higher = thermal stabilisation; K562 cells, 10 uM, 30 min; active = over 0.2 and 3.5 SD of the protein, either way, in both replicates (recomputed)
How it was run: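 Quantification of soluble protein used TMTpro 16plex LC-MS/MS, with channel sums equalised. Samples were the supernatant after 21,000xg for 90 min of pooled aliquots from K562 cells (2×10^6 cells/mL) treated with 10 μM compound for 30 min, heated for 3 min over 48°C-58°C, and extracted in PBS with 0.5% NP-40 at 4°C. Values, from duplicates, describe thermal stability against control samples on a log2 fold-change scale.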

The chains behind the UniProt entries cited, without tags or fusion partners. Where a name states a change or a piece, a line headed by the entry shows the natural chain unless it says otherwise.
UniProt Q9H0K1: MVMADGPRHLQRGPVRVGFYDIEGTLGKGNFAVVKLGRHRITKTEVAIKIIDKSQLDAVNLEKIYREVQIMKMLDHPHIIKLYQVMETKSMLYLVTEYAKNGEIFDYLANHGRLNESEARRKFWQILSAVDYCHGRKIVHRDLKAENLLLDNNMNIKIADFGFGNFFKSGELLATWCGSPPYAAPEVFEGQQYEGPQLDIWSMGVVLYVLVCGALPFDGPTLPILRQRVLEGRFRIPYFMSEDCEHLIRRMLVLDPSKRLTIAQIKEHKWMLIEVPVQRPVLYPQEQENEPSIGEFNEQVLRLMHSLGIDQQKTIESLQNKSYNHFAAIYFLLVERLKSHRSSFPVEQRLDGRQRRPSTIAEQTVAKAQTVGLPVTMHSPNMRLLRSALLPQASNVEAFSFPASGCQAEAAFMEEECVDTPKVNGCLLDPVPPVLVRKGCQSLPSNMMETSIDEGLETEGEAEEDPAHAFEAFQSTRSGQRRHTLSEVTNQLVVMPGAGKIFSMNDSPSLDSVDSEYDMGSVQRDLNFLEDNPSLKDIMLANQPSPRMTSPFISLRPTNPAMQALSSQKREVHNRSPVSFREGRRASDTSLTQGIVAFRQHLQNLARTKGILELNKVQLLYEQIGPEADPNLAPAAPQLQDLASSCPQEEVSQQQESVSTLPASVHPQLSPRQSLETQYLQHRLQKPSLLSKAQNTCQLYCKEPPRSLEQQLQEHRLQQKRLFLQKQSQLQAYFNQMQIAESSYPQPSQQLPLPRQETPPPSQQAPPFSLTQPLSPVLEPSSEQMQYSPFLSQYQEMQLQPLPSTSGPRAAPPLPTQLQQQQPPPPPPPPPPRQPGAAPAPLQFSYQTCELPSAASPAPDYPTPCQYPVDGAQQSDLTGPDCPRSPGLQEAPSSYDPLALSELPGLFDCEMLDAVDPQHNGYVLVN
UniProt Q9P0V9: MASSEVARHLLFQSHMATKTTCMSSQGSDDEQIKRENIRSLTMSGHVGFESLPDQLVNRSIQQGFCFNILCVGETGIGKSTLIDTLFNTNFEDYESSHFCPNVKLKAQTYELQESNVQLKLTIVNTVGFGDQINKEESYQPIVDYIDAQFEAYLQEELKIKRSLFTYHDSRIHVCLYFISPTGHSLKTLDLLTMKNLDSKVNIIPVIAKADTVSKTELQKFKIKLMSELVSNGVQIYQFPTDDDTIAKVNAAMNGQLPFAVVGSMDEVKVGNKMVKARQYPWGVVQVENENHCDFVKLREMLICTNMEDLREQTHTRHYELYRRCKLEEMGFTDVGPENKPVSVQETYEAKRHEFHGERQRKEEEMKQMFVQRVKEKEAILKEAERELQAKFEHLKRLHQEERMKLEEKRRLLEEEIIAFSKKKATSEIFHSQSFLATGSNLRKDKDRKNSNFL
UniProt A1X283: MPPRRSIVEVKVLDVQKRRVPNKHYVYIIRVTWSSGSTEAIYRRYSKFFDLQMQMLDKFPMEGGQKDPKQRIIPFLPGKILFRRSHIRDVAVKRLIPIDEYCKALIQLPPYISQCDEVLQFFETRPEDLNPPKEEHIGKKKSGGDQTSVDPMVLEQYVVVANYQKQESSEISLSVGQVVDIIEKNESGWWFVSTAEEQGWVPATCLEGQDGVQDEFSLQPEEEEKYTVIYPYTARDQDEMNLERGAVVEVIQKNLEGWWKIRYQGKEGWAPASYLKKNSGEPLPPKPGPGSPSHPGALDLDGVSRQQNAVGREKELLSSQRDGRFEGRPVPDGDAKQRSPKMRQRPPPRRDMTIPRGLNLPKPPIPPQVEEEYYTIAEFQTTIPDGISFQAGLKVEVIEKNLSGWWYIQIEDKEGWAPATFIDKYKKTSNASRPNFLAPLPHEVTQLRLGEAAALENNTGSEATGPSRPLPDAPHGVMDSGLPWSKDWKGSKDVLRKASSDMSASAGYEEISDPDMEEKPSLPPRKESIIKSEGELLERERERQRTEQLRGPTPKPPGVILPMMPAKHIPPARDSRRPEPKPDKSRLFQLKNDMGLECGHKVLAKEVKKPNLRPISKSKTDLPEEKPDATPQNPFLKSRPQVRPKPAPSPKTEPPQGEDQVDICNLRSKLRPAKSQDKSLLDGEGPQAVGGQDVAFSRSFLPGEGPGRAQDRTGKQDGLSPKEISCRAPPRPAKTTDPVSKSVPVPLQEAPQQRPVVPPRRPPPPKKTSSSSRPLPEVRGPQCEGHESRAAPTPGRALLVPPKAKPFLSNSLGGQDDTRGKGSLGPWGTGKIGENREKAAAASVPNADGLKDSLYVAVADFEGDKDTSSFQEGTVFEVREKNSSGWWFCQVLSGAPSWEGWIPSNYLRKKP
UniProt Q15464: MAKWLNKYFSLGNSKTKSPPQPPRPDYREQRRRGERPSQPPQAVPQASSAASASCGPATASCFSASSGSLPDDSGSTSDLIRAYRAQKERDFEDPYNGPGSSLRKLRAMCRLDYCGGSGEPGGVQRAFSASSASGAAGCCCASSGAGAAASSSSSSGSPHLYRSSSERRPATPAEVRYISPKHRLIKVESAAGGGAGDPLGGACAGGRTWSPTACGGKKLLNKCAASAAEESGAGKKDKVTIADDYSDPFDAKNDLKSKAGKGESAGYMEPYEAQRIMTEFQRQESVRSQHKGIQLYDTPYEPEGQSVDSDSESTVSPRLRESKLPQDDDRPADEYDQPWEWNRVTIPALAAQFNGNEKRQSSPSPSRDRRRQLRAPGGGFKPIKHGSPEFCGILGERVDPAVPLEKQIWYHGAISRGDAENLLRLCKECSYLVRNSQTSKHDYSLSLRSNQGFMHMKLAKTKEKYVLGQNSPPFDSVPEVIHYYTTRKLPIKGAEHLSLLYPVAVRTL
UniProt Q9Y6D0, whole entry, looked up: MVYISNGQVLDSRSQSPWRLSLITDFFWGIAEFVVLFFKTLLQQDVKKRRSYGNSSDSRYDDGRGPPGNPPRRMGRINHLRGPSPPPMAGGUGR
UniProt Q02383: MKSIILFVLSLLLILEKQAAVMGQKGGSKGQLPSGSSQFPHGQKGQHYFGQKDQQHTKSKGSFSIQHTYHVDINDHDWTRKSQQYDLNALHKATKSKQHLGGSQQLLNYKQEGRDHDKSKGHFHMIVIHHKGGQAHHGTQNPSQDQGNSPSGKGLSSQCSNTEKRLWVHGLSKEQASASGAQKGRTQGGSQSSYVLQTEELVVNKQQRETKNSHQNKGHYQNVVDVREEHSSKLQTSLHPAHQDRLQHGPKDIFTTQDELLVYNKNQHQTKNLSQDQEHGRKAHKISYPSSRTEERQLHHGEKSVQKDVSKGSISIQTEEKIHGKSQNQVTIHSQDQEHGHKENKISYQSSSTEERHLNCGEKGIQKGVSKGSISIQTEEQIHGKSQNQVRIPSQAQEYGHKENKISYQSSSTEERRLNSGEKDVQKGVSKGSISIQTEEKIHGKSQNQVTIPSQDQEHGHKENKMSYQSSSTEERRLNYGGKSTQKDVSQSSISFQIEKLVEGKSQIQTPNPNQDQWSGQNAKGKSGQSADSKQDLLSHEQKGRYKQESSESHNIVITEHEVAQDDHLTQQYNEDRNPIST
UniProt P84101: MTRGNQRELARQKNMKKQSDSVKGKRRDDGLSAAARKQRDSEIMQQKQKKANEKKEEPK
UniProt O75635: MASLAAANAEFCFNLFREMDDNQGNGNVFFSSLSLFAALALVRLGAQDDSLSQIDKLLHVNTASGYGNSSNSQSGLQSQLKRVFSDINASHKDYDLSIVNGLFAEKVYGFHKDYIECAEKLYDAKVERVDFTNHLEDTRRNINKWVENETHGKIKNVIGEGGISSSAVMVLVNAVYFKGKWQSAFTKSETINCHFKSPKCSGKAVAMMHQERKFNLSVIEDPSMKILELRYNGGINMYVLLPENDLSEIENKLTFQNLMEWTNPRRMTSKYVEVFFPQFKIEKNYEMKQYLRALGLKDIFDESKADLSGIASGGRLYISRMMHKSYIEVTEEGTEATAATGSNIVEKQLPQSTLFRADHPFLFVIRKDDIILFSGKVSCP
UniProt Q6P4A7: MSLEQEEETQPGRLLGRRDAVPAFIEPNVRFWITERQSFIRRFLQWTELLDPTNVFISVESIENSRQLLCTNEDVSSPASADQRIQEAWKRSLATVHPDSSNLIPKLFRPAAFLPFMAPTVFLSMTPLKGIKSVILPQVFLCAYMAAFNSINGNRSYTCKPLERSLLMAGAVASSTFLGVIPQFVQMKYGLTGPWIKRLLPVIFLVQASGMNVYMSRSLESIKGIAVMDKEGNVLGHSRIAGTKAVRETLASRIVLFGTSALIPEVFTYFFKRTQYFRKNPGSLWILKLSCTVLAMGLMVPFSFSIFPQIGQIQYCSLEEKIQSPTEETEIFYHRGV
UniProt Q86XK3: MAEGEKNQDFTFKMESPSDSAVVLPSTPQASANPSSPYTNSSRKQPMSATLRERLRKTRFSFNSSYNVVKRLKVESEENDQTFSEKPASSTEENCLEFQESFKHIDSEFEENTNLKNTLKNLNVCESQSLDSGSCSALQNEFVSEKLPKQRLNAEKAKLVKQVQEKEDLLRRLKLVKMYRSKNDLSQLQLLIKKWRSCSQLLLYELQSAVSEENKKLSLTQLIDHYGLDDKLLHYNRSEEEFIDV
UniProt P36952: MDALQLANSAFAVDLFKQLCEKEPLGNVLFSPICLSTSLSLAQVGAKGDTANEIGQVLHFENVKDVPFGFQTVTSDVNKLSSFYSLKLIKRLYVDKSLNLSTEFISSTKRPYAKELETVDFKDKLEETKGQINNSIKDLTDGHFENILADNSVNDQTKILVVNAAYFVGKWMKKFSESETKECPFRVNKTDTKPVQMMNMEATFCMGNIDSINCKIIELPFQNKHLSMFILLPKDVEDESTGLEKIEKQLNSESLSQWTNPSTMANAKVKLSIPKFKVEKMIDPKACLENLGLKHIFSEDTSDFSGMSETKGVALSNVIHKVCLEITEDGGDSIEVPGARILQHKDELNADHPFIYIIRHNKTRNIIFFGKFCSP

log2 fold change, inactive:
SIK2 (UniProt Q9H0K1) 0.08, SEPTIN10 isoform 2 (UniProt Q9P0V9) 0.079, SH3PXD2B (UniProt A1X283) -0.115, SHB (UniProt Q15464) -0.08, SELENOK (UniProt Q9Y6D0) 0.003, SEMG2 (UniProt Q02383) -0.031, SERF2 (UniProt P84101) 0.018, SERPINB7 (UniProt O75635) 0.071, SFXN4 isoform 3 (UniProt Q6P4A7) 0.038, SFR1 isoform 2 (UniProt Q86XK3) -0.047, SERPINB5 (UniProt P36952) -0.028

— the supplement of paper PMC10849652
